Among the data in US20190054137A1 (INDIANA UNIVERSITY RESEARCH AND TECHNOLOGY, published 2019) are binding values, retold here.

Amino acid sequences for entries named in this document (tags omitted).
UniProt Q04206: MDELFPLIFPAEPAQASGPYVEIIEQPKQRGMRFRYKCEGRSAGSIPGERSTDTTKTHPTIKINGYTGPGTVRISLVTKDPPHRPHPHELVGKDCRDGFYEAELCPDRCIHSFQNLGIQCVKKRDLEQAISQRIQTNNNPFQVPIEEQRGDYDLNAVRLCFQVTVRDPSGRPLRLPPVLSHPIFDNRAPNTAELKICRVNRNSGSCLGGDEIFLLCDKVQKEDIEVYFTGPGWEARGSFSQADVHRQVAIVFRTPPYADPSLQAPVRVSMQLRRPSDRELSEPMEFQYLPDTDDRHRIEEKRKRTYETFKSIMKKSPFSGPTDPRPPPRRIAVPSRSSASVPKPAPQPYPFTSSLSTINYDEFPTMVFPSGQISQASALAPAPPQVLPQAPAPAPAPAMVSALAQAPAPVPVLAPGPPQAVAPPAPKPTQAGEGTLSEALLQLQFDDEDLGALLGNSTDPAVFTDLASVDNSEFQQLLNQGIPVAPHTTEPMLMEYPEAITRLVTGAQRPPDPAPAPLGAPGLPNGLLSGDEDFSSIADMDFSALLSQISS

These are yes or no findings as the source states them, for the method shown. Some results given as binding are weak or reduced against the parent protein; the word gives no strength. Where a sequence is shown, tags or fusion partners need not be part of it.

In this assay the target is Recombinant human p65 protein (r-p65) with DDK tag (OriGene catalog number TP320780) (human) (UniProt Q04206). Description: plate-bound r-GILZ (0.5 µM to 20 µM) probed with 80 pM r-p65, anti-DDK detection; used as the 100% reference.

B1: purified recombinant human GILZ protein (r-GILZ) with GST tag (protein, UniProt Q99576 1-134, looked up, not shown: a dimerising Fc or GST)
chain: MNTEMYQTPMEVAVYQLHNFSISFFSSLLGGDVVSVKLDNSASGASVVAIDNKIEQAMDLVKNHLMYAVREEVEILKEQIRELVEKNSQLERENTLLKTLASPEQLEKFQSCLSPEEPAPESPQVPEAPGGSAV
On to B1, for which the binding result was “binds”.
